In this test the test system is Salmonella enterica serovar Typhimurium SL1344. Description: bacterial growth OD600 after 18 h with compound and polymyxin B; higher = more bacterial growth (less inhibition). To be noted: 50 µM, Mueller-Hinton broth.

This is one part of the list. Values are raw readings; no control value is given beside them.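 Primary screen: polymyxin B was added at a level permeabilizing Salmonella outer membranes while sparing inner membranes. DMSO wells, both with and without polymyxin B, established maximum growth. Plate-to-plate variation meant each plate was ranked on its own, and the lowest-OD600 compounds were selected as hits.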

For `CCOC(=O)N1CCN(C(=O)c2ccc(N3CCC(NCC4COCCO4)CC3)cc2)CC1` (stereo unspecified), the “bacterial growth OD600” value (polymyxin B 0.75 µg/mL) was 0.719.

Regarding `COCC(=O)Nc1cc(C(=O)N2CCCC(COC)C2)c2c(c1)ncn2Cc1ccc(F)cc1` (stereo unspecified), the “bacterial growth OD600” value (polymyxin B 0.75 µg/mL) was determined as 0.804.

On to `Cc1nc(N2CCC(C(=O)NC(Cn3ccnc3)c3ccccc3)CC2)nc2ccc(C(C)C)cc12` (stereo unspecified), for which, where the note is “polymyxin B 0.75 µg/mL”, the “bacterial growth OD600” value was determined as 0.018.

Turning to `CC(C)n1cc(CN2CCCC2C(=O)Nc2ccccc2Oc2cccnc2)cn1` (stereo unspecified), the “bacterial growth OD600” value (polymyxin B 0.75 µg/mL) worked out at 0.856.

Turning to `CN(C)Cc1ccc(C(=O)N2CCCC(CCc3cccc(F)c3)C2)o1` (stereo unspecified), the “bacterial growth OD600” value (polymyxin B 0.75 µg/mL) is -0.003.

As to `Cn1cc(CNC(=O)C2CCCN(C3CCN(Cc4ccccc4)CC3)C2)cn1` (stereo unspecified), the “bacterial growth OD600” value (polymyxin B 0.75 µg/mL) was determined as 0.688.

For the compound `Cc1cc(OCc2cc(C(=O)N(C)Cc3cnn(C)c3)no2)cc(C)c1Cl`, the “bacterial growth OD600” value (polymyxin B 1 µg/mL) was found to be 0.024.

Turning to `Cc1cccc(C(=O)NCc2nc(-c3ccc(NC(=O)Cc4ccccc4)cc3)oc2C)c1`, under “polymyxin B 0.75 µg/mL”, the “bacterial growth OD600” value is 0.86.

Turning to `COc1ccccc1CCN1CCC(CN(C)C(=O)CCc2cccnc2)CC1`, for the setting “polymyxin B 1 µg/mL”, the “bacterial growth OD600” value was found to be 1.

Take `Cc1ccccc1CC(=O)NC1CC(=O)N(Cc2ccccc2Cl)C1` (stereo unspecified): the “bacterial growth OD600” value (polymyxin B 1 µg/mL) stood at 0.962.

As to `CC(=O)NCCNC(=O)C1CCCN(c2nc(-c3ccccc3)nc3c2CCC3)C1` (stereo unspecified), the “bacterial growth OD600” value (polymyxin B 1 µg/mL) was 0.916.

In the case of `O=C(NCC1CCOCC1)C1CCN(c2nc(-c3ccccc3)nc3c2CCC3)CC1`, where the note is “polymyxin B 0.75 µg/mL”, the “bacterial growth OD600” value was found to be 0.824.

Take `Cc1nc(C)c(C(=O)N2CCCC(Nc3ccc4c(c3)OCCO4)C2)s1` (stereo unspecified): the “bacterial growth OD600” value (polymyxin B 1 µg/mL) was 0.971.

In the case of `COCCN1C(=O)NC(Cc2ccc(F)cc2)(C2CCN(C(=O)c3ccc(C)cc3C)CC2)C1=O` (stereo unspecified), where the note is “polymyxin B 0.75 µg/mL”, the “bacterial growth OD600” value was 0.854.

For the compound `CSCCNC(=O)c1coc(COc2ccccc2F)n1`, the “bacterial growth OD600” value (polymyxin B 1 µg/mL) is 0.982.

For the compound `Cc1ncc2c(c1CNS(=O)(=O)c1cccs1)CCN(C(=O)c1ccc(-n3cccn3)cc1)C2`, under “polymyxin B 0.75 µg/mL”, the “bacterial growth OD600” value was found to be 0.878.

As for `COc1ccccc1-c1ccnc(-n2ncc(C(=O)N3CCN(Cc4ccccc4)CC3)c2C)n1`, under “polymyxin B 0.75 µg/mL”, the “bacterial growth OD600” value came out at 0.838.

With `COc1cccc(C(=O)N2CCCC(CCC(=O)N3CCN(c4ccccn4)CC3)C2)c1` (stereo unspecified), the “bacterial growth OD600” value (polymyxin B 0.75 µg/mL) amounted to 0.795.

Regarding `Cc1nc2ccccc2n1Cc1cc(C(=O)NCCCO)no1`, the “bacterial growth OD600” value (polymyxin B 1 µg/mL) turned out to be 0.967.

Consider `COc1cccc(CC(C2CCN(C(=O)c3ccccc3C)CC2)N(C)C(=O)c2ccn(C)n2)c1` (stereo unspecified), for which, for the setting “polymyxin B 0.75 µg/mL”, the “bacterial growth OD600” value came out at 0.946.

Take `COC(=O)CCCC(=O)N1CCC2(CCCN(Cc3ccccc3F)C2=O)C1` (stereo unspecified): under “polymyxin B 1 µg/mL”, the “bacterial growth OD600” value turned out to be 0.973.

As to `CSc1ncccc1C(=O)N1CCc2onc(-c3ccccc3F)c2C1`, the “bacterial growth OD600” value (polymyxin B 0.75 µg/mL) came to 0.468.

For the compound `CCCCNC(=O)N1CCC(C2CCN(Cc3cccnc3)CC2)C1` (stereo unspecified), the “bacterial growth OD600” value (polymyxin B 0.75 µg/mL) came to 0.97.

Regarding `O=C(/C=C/c1cccc(F)c1)N1CCCC(c2nc(-c3cccnc3)ncc2-c2ccccc2F)C1` (stereo unspecified), for the setting “polymyxin B 0.75 µg/mL”, the “bacterial growth OD600” value was 0.556.

`CN(CC1CCCCO1)C(=O)c1coc(COc2ccc(F)cc2)n1` (stereo unspecified): the “bacterial growth OD600” value (polymyxin B 1 µg/mL) was found to be 0.954.

As to `COc1cccc(-c2cc(CC3(O)CCN(C4Cc5ccccc5C4)CC3)on2)c1`, the “bacterial growth OD600” value (polymyxin B 0.75 µg/mL) turned out to be 0.521.

`Cc1nc(CN(C)C(=O)c2cc(Cn3c(C)nc4ccccc43)on2)cs1`: the “bacterial growth OD600” value (polymyxin B 1 µg/mL) came to 0.975.

`COc1ccccc1N1CCN(C(=O)Cn2nnnc2CN2CCOCC2)C(C)C1` (stereo unspecified): where the note is “polymyxin B 0.75 µg/mL”, the “bacterial growth OD600” value came out at 0.786.

`Cc1cccc(-c2cnc(C)nc2C2CCCN(C(=O)c3ccc(C)c(C)c3)C2)c1` (stereo unspecified): for the setting “polymyxin B 0.75 µg/mL”, the “bacterial growth OD600” value was found to be 0.98.

As to `COc1cccc(N2C(=O)CN(C(=O)c3csc4c3CCCC4)CC2C)c1` (stereo unspecified), the “bacterial growth OD600” value (polymyxin B 0.75 µg/mL) is 0.719.

For `COc1ccc(NC2CCCN(C(=O)CCc3cccc(Cl)c3)C2)cc1` (stereo unspecified), the “bacterial growth OD600” value (polymyxin B 1 µg/mL) was found to be 0.206.

(Values after the supplement of paper PMC12889115.)
